## Results of single-concentration screens

The values are deposited in ChEMBL (CHEMBL3988442, “University of Dundee, Small-Polar-MMV Screening Library” (2021)).

Results are given as percent effect.
The controls that fix the scale are not given in the record; negative values are as filed.
Compounds were drawn at random from those tested, without regard to their results.
Two or more numbers in one place are separate tests of the same structure; such repeats can differ widely.

A: 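Whole-cell growth test on Mycobacterium tuberculosis, read after 3 days in glucose-containing 7H9 medium; the read-out is not stated. Compounds at 50 µM. Higher reads as more growth inhibition (inferred: compounds with an IC50 in retests scored well above the rest). About 69,000 compounds were tested under these conditions; 1.1% (about 760) showed 50% or more at least once.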
B: 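Phenotypic screen: M. tuberculosis growth, cholesterol and DPPC medium, 4 days; the read-out is not stated. Concentration: 50 µM. Direction is inferred from retests: higher values go with more growth inhibition. Of about 69,000 compounds tested this way, about 370 (0.54%) reached 50% or more in at least one test.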

For Cc1ccc(CN2CCCC3(CCCC(=O)N3C)C2)s1.O=C(O)C(F)(F)F (centres unmarked) the result was A: -17.48%; B: -13.35%.
For Cc1ccc(CN2CC(O)CN(C(=O)C3CC3)CC2=O)cc1 (centres unmarked) the result was A: -11.51%; B: -7.891%.
For O[C@H]1CC[C@@H](Cc2cc(-c3ccccc3)on2)O[C@@H]1CNCC1CC1 the result was A: 1.955% and 30.05%; B: 28.93%.
For c1cc(CNCc2ccnc(N3CCCC3)c2)c2c(c1)OCO2 the result was A: -7.234%; B: -37.2%.
For Cc1cccc(C(C)CNC(=O)N2CCOCC3(CCOCC3)C2)c1 (centres unmarked) the result was A: -6.024% and 1.076%; B: -6.322%.
For Cc1ccc(CN2CCCC3(CCCCN3S(C)(=O)=O)C2)s1.O=C(O)C(F)(F)F (centres unmarked) the result was A: 19.39%; B: -19.15%.
For c1ccc(CCN2CCN(C3CCOC4(CCOCC4)C3)CC2)cc1 (centres unmarked) the result was A: -6.216%; B: -1.911%.
For CCc1cccc(NS(=O)(=O)c2cc3c(c(C(=O)O)c2)OCCO3)c1 the result was A: 1.15%; B: -3.731%.
For CC(CNC(=O)Nc1cn[nH]c1)N1CCc2ccccc2C1 (centres unmarked) the result was A: 0.07754%; B: -11.07%.
For CN1CCN(C2COC3(CCN(Cc4ccsc4)CC3)C2)CC1.O=C(O)C(F)(F)F.O=C(O)C(F)(F)F (centres unmarked) the result was A: -20.21%; B: 3.164% and -20.05%.
For CC(=O)N1CCN(CCNS(=O)(=O)c2cc(F)cc(F)c2)CC1 the result was A: 30.89%; B: 9.372%.
For CN1C(=O)CCCC12CCCN(C(=O)c1cccc(C(F)(F)F)c1)C2 (centres unmarked) the result was A: 19.7%; B: -4.073% and -12.9%.
For CCCN1CCC(CC(=O)N[C@H](C(=O)O)c2cccc(F)c2F)CC1 the result was A: -0.7475%; B: 7.191%.
For O=C(Cc1ccc(F)cc1)N1CCn2c(Cn3cncn3)cnc2C1 the result was A: -33.36%; B: -21.69% and -16.59%.
For COc1ccc(C(NC(=O)NCc2nnc3n2CCC3)C2CC2)cc1 (centres unmarked) the result was A: 7.674%; B: -10.37% and 0.07474%.
For Cc1n[nH]c2c1C(c1ccc(Br)cc1)SCC(=O)N2 (centres unmarked) the result was A: -1.125%; B: -10.54%.
For CC(C#N)CN(C)C(=O)CCNC(=O)OC(C)(C)C (centres unmarked) the result was A: -13.93%; B: -4.199%.
For [H][C@@]12CS(=O)(=O)C[C@]1([H])N(Cc1ccncc1)CCN2CCOC the result was A: -23.35%; B: -6.262%.
For COCC1CN(C(=O)Nc2cc(C(F)(F)F)ccc2F)CCO1 (centres unmarked) the result was A: -1.84%; B: -24.35%.
For Cc1noc(C)c1-c1cncc(C2CCCN2Cc2ncccc2F)n1 (centres unmarked) the result was A: 3.151%; B: -9.33%.
For CCS(=O)(=O)N1CCC(c2nnc(CN3CCCC3)n2C2CC2)CC1 the result was A: 14.57%; B: 7.32%.
For CCN1CCN(C2CCN(Cc3nc(CCOC)no3)CC2)C1=O the result was A: 1.369%; B: -5.302%.
For COCc1ncc(CN2CC[C@@H](NC(=O)c3cccnc3)[C@H](O)C2)cn1 the result was A: -15.94%; B: -5.186%.
For CC(Cn1cccn1)NC(=O)N1CCN(Cc2cccs2)CC1 (centres unmarked) the result was A: -21.02%; B: -24.8%.
For O=C1CC(c2ccc(C(F)(F)F)cc2)c2c(n3ccsc3nc2=O)N1 (centres unmarked) the result was A: 4.632%; B: 6.998%.
For CC(C)c1ccc(O)c(C(=O)NCc2nncn2C)c1 the result was A: -18.33%; B: -11.27% and -11.3%.
For CS(=O)(=O)N1CCC2(CCCN(Cc3ccccn3)C2)CC1.O=C(O)C(F)(F)F the result was A: -6.447% and -11.18%; B: -9.312% and -5.223%.
For COCC1COCCC12CCN(CCc1ccccc1)CC2.O=C(O)C(F)(F)F (centres unmarked) the result was A: 16.86%; B: 14.5% and 1.924%.
For O=C(Nc1ccc(F)cc1)N1CCC(CO)(Nc2ccccc2)CC1 the result was A: 32.24% and 2.835%; B: 8.454%.
For CN(C)[C@@H]1CCN(C(=O)C2CCOCC2)[C@H]1Cc1ccncc1.O=C(O)C(F)(F)F.O=C(O)C(F)(F)F the result was A: 2.675%; B: -12.04%.

The first 3 entries again:

compound,A,B
Cc1ccc(CN2CCCC3(CCCC(=O)N3C)C2)s1.O=C(O)C(F)(F)F (centres unmarked),-17.48,-13.35
Cc1ccc(CN2CC(O)CN(C(=O)C3CC3)CC2=O)cc1 (centres unmarked),-11.51,-7.891
O[C@H]1CC[C@@H](Cc2cc(-c3ccccc3)on2)O[C@@H]1CNCC1CC1,1.955 and 30.05,28.93